# Counter-ions that a name gives are not always drawn. Some of the results follow. Cut-off read from the data, not from the text of the source: active = 0.5 or less and inactive = the rest. Single values are uncertain, as repeats are few or missing.
# Test system: SK-MEL-28
# Assay: EEF2K protein level normalised to actin (western blot) after treatment (ratio (EEF2K/Actin)); higher = more EEF2K protein remaining (less EEF2K suppression)
# Settings: 5 µM; 24 h
row,SMILES,EEF2K protein level normalised to actin
1,N=C1CCCN1Cc1[nH]c(=O)[nH]c(=O)c1Cl.O=c1[nH]c(=O)n([C@H]2C[C@H](O)[C@@H](CO)O2)cc1C(F)(F)F,inactive: 1.27
2,CC#CC(=O)N1CCC[C@H]1c1nc(-c2ccc(C(=O)Nc3ccccn3)cc2)c2c(N)nccn12 [Acalabrutinib (ACP-196)],inactive: 1.69
3,COC(=O)N[C@H](C(=O)N1CCC[C@H]1c1ncc(-c2ccc(-c3ccc(-c4cnc([C@@H]5CCCN5C(=O)[C@@H](NC(=O)OC)C(C)C)[nH]4)cc3)cc2)[nH]1)C(C)C,inactive: 0.91
4,COc1cc2ncnc(Nc3ccc(F)c(Cl)c3)c2cc1OCCCN1CCOCC1 [Gefitinib hydrochloride],inactive: 1.21
5,CN(C(=O)c1c(O)c2ccccc2n(C)c1=O)c1ccccc1 [Roquinimex],inactive: 1.72
6,"O=C(CCCCCCC(=O)Nc1ccccc1)NO [Vorinostat (SAHA, MK0683)]",inactive: 0.79
7,CN(C)C/C=C/C(=O)Nc1cc2c(Nc3ccc(F)c(Cl)c3)ncnc2cc1O[C@H]1CCOC1 [Afatinib (BIBW2992) Dimaleate],inactive: 0.51
8,Cc1nc(Nc2ncc(C(=O)Nc3c(C)cccc3Cl)s2)cc(N2CCN(CCO)CC2)n1 [Dasatinib hydrochloride],inactive: 1.16
9,CC(=O)O[C@H]1CC[C@@]2(C)C(=CC[C@@H]3[C@@H]2CC[C@]2(C)C(c4cccnc4)=CC[C@@H]32)C1 [Abiraterone Acetate],inactive: 1.93
10,COc1cc2nccc(Oc3ccc(NC(=O)Nc4cc(C)on4)c(Cl)c3)c2cc1OC [Tivozanib (AV-951)],inactive: 3.28
11,Nc1n[n+]([O-])c2ccccc2[n+]1[O-] [Tirapazamine],inactive: 2.22
12,NC(=O)c1cccc2cn(-c3ccc([C@@H]4CCCNC4)cc3)nc12 [Niraparib (MK-4827)],inactive: 0.65
13,CCC1=C[C@@H]2CN(C1)Cc1c([nH]c3ccccc13)[C@@](C(=O)OC)(c1cc3c(cc1OC)N(C)[C@H]1[C@@](O)(C(=O)OC)[C@H](OC(C)=O)[C@]4(CC)C=CCN5CC[C@]31[C@@H]54)C2 [Vinorelbine Tartrate],inactive: 0.62
14,O=C(c1cc(Cc2n[nH]c(=O)c3ccccc23)ccc1F)N1CCN(C(=O)C2CC2)CC1,inactive: 1.22
15,O=c1c(-c2ccc(O)cc2)coc2cc(O)cc(O)c12 [Genistein],inactive: 1.73
16,S=c1[nH]cnc2nc[nH]c12 [Mercaptopurine (6-MP)],inactive: 0.58
17,Clc1ccc(C(c2ccccc2Cl)C(Cl)Cl)cc1 (stereo unspecified) [Mitotane],inactive: 1.01
18,CCC[C@@H]1C[C@@H](C(=O)N[C@@H]([C@H]2O[C@H](SC)[C@H](O)[C@@H](O)[C@H]2O)[C@@H](C)O)N(C)C1 [Lincomycin HCl],inactive: 2.27

row,SMILES,EEF2K protein level normalised to actin
1,CCN1CCN(Cc2ccc(Nc3ncc(F)c(-c4cc(F)c5nc(C)n(C(C)C)c5c4)n3)nc2)CC1 [Abemaciclib],inactive: 1.05
2,Nc1nc(CC(=O)Nc2ccc(CCNC[C@H](O)c3ccccc3)cc2)cs1 [Mirabegron],inactive: 1.21
3,CC1=C(/C=C/C(C)=C/C=C/C(C)=C/C(=O)O)C(C)(C)CCC1 [Tretinoin],inactive: 0.82
4,COc1cc(N2CCC(N3CCN(C)CC3)CC2)ccc1Nc1ncc(Cl)c(Nc2ccccc2P(C)(C)=O)n1,inactive: 0.74
5,CNC(=O)[C@@H](NC(=O)[C@H](CC(C)C)[C@H](O)C(=O)NO)C(C)(C)C [Marimastat (BB-2516)],inactive: 2.22
6,CC(C)Cn1cnc2c(N)nc3ccccc3c21 [Imiquimod],inactive: 1.7
7,C#Cc1cccc(Nc2ncnc3cc4c(cc23)OCCOCCOCCO4)c1 [Icotinib],inactive: 1.09
8,Nc1nc2[nH]cc(CCc3ccc(C(=O)N[C@@H](CCC(=O)O)C(=O)O)cc3)c2c(=O)[nH]1 [Pemetrexed Disodium Hydrate],inactive: 0.58
9,S=c1nc[nH]c2nc[nH]c12 [6-Mercaptopurine (6-MP) Monohydrate],inactive: 1.17
10,CCc1nc(C(N)=O)c(Nc2ccc(N3CCC(N4CCN(C)CC4)CC3)c(OC)c2)nc1NC1CCOCC1 [Gilteritinib (ASP2215)],inactive: 4.32
11,O=c1[nH]c(=O)n([C@H]2C[C@H](O)[C@@H](CO)O2)cc1F [Floxuridine],active: 0.23
12,CC(C)(O)CNc1nc(Nc2ccnc(C(F)(F)F)c2)nc(-c2cccc(C(F)(F)F)n2)n1 [Enasidenib (AG-221)],inactive: 0.71
13,CNC(=O)c1c(C)oc2cc(Oc3ncnc4cc(OC)c(OC)cc34)ccc12 [Fruquintinib],inactive: 0.77
14,COc1cc2c3cc1Oc1c(OC)c(OC)cc4c1[C@@H](Cc1ccc(O)c(c1)Oc1ccc(cc1)C[C@@H]3N(C)CC2)N(C)CC4 [Berbamine],inactive: 3.01
15,Cc1cc2c(C(N)=O)cccc2n1-c1nc2c(c(NCc3ccccc3)n1)COCC2,inactive: 0.51
16,COc1cc2ncnc(Nc3ccc(F)c(Cl)c3)c2cc1NC(=O)/C=C/CN1CCCCC1,inactive: 0.51
17,CC(=O)O[C@]1(C(C)=O)CC[C@H]2[C@@H]3C=C(C)C4=CC(=O)CC[C@]4(C)[C@H]3CC[C@@]21C [Megestrol Acetate],inactive: 1.12
18,Cc1nc(NC(=O)N2CCC[C@H]2C(N)=O)sc1-c1ccnc(C(C)(C)C(F)(F)F)c1 [Alpelisib (BYL719)],inactive: 1.08

# Quoted from the listing.
# Entry of O=C(c1cc(Cc2n[nH]c(=O)c3ccccc23)ccc1F)N1CCN(C(=O)C2CC2)CC1 under EEF2K protein level normalised to actin: inactive: 1.22
# Entry of C#Cc1cccc(Nc2ncnc3cc4c(cc23)OCCOCCOCCO4)c1 [Icotinib] under EEF2K protein level normalised to actin: inactive: 1.09

# Reference: the supplement of paper PMC8858631
